Paper PMC4048286

Amino acid sequences for entries named in this document (tags omitted). A change or cut given only in a name is not applied to a line headed by its entry.
UniProt D4GZY6: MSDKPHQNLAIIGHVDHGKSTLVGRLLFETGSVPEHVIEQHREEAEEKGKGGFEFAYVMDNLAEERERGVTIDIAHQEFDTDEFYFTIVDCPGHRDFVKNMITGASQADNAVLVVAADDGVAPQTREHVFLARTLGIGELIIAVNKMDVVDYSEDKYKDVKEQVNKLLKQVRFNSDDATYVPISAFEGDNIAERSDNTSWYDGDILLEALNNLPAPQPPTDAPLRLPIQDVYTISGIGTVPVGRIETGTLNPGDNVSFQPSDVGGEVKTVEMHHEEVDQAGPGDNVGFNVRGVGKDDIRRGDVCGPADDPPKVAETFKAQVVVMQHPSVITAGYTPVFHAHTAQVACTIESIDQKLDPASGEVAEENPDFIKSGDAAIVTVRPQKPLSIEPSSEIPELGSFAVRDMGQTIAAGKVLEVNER

T1: NcsA with a C-terminal StrepII-tag (Hfx. volcanii HVO_0580, Tuc1/Ncs6 homolog) (Haloferax volcanii) (UniProt D4GSH6)
T1 sequence: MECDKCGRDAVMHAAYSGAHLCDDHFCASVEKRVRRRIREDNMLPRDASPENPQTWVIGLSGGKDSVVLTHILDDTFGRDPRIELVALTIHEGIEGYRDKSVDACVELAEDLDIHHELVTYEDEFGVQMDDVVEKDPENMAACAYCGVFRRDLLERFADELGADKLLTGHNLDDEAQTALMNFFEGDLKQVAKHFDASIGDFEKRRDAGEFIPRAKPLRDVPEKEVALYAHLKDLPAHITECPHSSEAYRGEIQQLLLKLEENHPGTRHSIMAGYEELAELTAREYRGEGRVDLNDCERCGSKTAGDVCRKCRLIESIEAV

B1: UbaA (ubiquitin-activating E1 enzyme homolog of archaea) (enzyme, UniProt D4GSF3 1-270)
chain: MTLSLDATQLDRYSRHIIMDEVGPEGQGRLLSSRVVVVGAGGLGAPAIQYLAAVGVGELVVVDDDVVERSNLQRQVVHCDDDVGTPKAESAAAFVRGLNPDVSVEPVEARVDKSNVHEVVAGSDVVVDASDNFPTRYLLNDVCRFEGIPLVHGAIYKFEGQATTLVPDGPCYRCLFPEAPEPGTVPDCATTGVLGVLPGTVGCIQATEAMKLLLDEGEALDGRLLFYDAMDMTFETVPYRTNPDCPVCGEGGVDSIEDIDYVESCAISLD
B2: N-terminal Flag-tagged SAMP2 (small archaeal modifier protein 2) (protein, UniProt D4GZE7 1-66)
chain: MNVTVEVVGEETSEVAVDDDGTYADLVRAVDLSPHEVTVLVDGRPVPEDQSVEVDRVKVLRLIKGG
B3: Proteasome-activating nucleotidase A/1 (PAN-A/1) (protein, UniProt D4GUJ7 1-406)
chain: MMTDTVDDVDLPYDKDSASQQEKITALQERLEVLETQNEEMRDKLLDTNAENNKYQQKLERLTHENKKLKQSPLFVATVQEITDEGVIIKQHGNNQEALTEVTDEMREELEPDARVAVNNSLSIVKRLDKETDVRARVMQVEHSPDVTYEDIGGLEEQMQEVRETVEMPLDRPEMFAEVGIDPPSGVLLYGPPGTGKTMLAKAVANQTNASFIKMAGSELVHKFIGEGAKLVRDLFEVARENEPAVIFIDEIDAIASKRTDSKTSGDAEVQRTMMQLLAEMDGFDERGNIRIIAATNRFDMLDPAILRPGRFDRLIEVPKPNEDGREIIFQIHTRKMNVSDDVDFVELAEMADNASGADIKAVCTEAGMFAIRDDRTEIFMQDFVDAWEKIQQEASDETEVSRAFA

Molecular target: T1, NcsA with a C-terminal StrepII-tag (Hfx. volcanii HVO_0580, Tuc1/Ncs6 homolog) (Haloferax volcanii)
Assay: affinity purification with mass spectrometry; NcsA-StrepII purified by Strep-Tactin chromatography from ΔncsA strains (with and without Flag-SAMP1/2), compared to empty vector control; trypsin digest, LC-MS/MS (LTQ Orbitrap)

binding, binds:
Translation elongation factor aEF-1α (from UniProt D4GZY6)
B1
B2
B3

Results are given in words; binding and its absence hold for the method and conditions named. Binding seen in cells or lysates may run through a third protein. A yes stands for co-enrichment or nearness to the bait. Other partners may have been found. Sequences can lack the tags named with a protein.
